Here are results for 1 substance from patent US20110124011A1.

The chains behind the UniProt entries cited, without tags or fusion partners.
UniProt Q16659: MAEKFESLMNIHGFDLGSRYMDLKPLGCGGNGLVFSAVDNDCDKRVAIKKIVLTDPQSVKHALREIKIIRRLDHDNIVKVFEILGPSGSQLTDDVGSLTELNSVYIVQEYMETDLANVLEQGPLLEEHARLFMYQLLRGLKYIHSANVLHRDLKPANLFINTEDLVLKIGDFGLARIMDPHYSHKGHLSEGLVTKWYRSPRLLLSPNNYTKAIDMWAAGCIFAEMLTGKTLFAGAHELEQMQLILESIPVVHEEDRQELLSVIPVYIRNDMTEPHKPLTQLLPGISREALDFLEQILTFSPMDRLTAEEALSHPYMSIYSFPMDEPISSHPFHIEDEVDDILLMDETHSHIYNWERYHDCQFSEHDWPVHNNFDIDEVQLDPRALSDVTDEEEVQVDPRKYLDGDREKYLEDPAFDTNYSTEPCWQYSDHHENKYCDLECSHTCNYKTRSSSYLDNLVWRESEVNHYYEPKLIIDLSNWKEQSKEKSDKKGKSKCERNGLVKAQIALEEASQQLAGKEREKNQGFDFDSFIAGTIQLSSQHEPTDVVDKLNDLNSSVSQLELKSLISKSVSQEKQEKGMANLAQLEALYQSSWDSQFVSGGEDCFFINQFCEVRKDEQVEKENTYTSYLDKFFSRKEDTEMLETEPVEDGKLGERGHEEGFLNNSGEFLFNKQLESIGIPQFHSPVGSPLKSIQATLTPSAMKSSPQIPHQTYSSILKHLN
UniProt Q8IW41: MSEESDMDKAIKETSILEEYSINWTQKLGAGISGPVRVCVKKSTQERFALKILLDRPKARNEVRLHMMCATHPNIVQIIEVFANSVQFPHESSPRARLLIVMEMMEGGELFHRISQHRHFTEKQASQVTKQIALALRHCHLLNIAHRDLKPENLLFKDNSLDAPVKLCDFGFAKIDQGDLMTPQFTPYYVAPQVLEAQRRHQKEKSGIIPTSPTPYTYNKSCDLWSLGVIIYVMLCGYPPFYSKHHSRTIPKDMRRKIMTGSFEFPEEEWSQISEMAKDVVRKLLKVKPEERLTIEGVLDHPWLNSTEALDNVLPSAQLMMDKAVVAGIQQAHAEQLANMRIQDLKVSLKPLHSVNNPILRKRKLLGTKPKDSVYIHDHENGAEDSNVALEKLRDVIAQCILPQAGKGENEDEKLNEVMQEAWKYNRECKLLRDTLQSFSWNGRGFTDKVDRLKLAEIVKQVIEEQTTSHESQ

This assay addresses ERK3 (UniProt Q16659). Kind of assay: trans-SUMOylation, coexpression with EGFP-SUMO1 in HEK293 cells, western blot. (A western blot detects proteins with antibodies after separation by electrophoresis.)

Results are given in words; binding and its absence hold for the method and conditions named. Some entries that bind do so weakly or less than the wild type.

With “MK5 (from UniProt Q8IW41 1-473) (enzyme)”, the binding entry is given as “binds”.
